PMC6857044
No constants are given. Whether binding was seen depends on the method and setting. Binding seen in cells or lysates may run through a third protein. Some binding calls cover weakened binding; strength is not graded here.

The chains behind the UniProt entries cited, without tags or fusion partners.
UniProt Q15796: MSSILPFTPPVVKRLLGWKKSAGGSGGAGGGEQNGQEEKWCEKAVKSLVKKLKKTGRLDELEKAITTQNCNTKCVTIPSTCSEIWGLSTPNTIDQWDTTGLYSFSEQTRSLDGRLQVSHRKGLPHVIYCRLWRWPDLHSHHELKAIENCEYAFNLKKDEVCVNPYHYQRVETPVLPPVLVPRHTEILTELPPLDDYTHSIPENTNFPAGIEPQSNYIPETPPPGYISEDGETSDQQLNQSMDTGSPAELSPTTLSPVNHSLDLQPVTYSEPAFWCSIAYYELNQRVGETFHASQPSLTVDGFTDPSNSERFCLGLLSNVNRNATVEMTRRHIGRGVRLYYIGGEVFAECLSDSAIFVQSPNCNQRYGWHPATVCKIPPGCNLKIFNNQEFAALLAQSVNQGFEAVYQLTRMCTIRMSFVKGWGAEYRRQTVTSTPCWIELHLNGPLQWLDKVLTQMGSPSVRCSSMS

Biological target: p53 (human (endogenous in HK2)) (UniProt P04637)
Assay: co-IP; HK2 cells lysed in 1% NP-40; p53 antibody 2 h at 4 °C, captured on Protein A agarose beads, washed three times with 1% NP-40; Western blot with Smad2 antibody

binding: binds
Substance: Smad2 (from UniProt Q15796 1-467)
